In publication PMC3849077:
These are yes or no findings as the source states them, for the method shown. In cells and extracts the contact can be indirect. Some entries that bind do so weakly or less than the wild type.

Molecular target: Endogenous Synapsin I (mouse brain) (mouse (endogenous in wild-type mouse brain)) (UniProt O88935)
Experiment: co-IP; wild-type mouse brain lysate; protein A/G agarose beads with USIPP immune serum (anti-Prickle1 blot) or with anti-Prickle1 antibodies (anti-Synapsin I blot), overnight at 4°C; washes in NET-100 buffer

B1: Endogenous Prickle1 (mouse brain) (protein, UniProt Q3U5C7 1-832)
chain: MPLEMEPKMSKLVFGCQRSSTSDDDSGCALEEYAWVPPGLRPEQIQLYFACLPEEKVPYVNSPGEKHRIKQLLYQLPPHDNEVRYCQSLSEEEKKELQVFSAQRKKEALGRGTIKLLSRAVMHAVCEQCGLQMNGGEVAVFASRAGPGVCWHPSCFVCFTCNELLVDLIYFYQDGKIHCGRHHAELLKPRCSACDEIIFADECTEAEGRHWHMKHFCCLECETVLGGQRYIMKDGRPFCCGCFESLYAEYCETCGEHIGVDHAQMTYDGQHWHATEACFSCAQCKASLLGCPFLPKQGQIYCSKTCSLGEDIHASDSSDSAFQSARSRDSRRSVRMGRSSRSADQCRQSLLLSPALNYKFPGLSGNADDTLSRKLDDVSLASRQGAGFANEEFWKARVEQEASEDPEEWAEHEDYMTQLLLKFGDKNLFQQQSSEVDPRASEHWIPDNMVTNKPEVKPNHQGLASKKYQSDMYWAQSQDGLGDSAYGSHPGPASSRRLQELDLDHGAAGYTHDQSQWYEDSLECLSDLKPEQSIRDSMDSLALSNITGASVDGESKPRPSLYSLQNFEEIEAEDCEKMSNMGTLNSSMLHRSAESLQSLNSGLCPEKILPEEKPAHLPVLRRSKSQSRPQQVKFSDDVIDNGSYDIEIRQPPMSERTRRRAYHFEERGSRPHHHRHRRSRKSRSDNALNLVTERKYSAKDRLRLYTPDNYEKFIQNKSARELQAYMQNANLYSQYAHATSDYALQNPGMNRFLGLCGEDDDSWCSSSTSSSDSEEEGYFLGQPIPQPRPQRFTYYTDDLSSPASALPTPQFTQRTTKSKKKKGHKGKNCIIS
binding: binds
